The values that follow come from patent US6506880B2, “Synthetic peptides that enhance atherogenic lipoprotein uptake and lower plasma cholesterol” (The UAB Research Foundation, priority 1998, dated 2003).

The subject of one data set is VLDL. The data set can be described thus: Displacement of apolipoproteins from VLDL (SDS-PAGE and immunoprecipitation). To be noted: for Displacement of apo E from VLDL: VLDL:peptide 1:0.15 to 1:0.6 w/w. Details: species or system human. As to the method: The gel is stained with Coomassie Brilliant blue. Lanes: 1: VLDL alone; 2: VLDL-Ac-hE18A-NH2 (1:0.15 w/w); 3: Molecular weight standards; 4: VLDL-Ac-hE18A-NH2 (1:0.3 w/w); 5: VLDL-Ac-hE18A-NH2 (1:0.6 w/w). The positions of the apolipoproteins and the peptide are clearly marked. The numbers indicate the molecular weights of the standards. Each of the lanes contains the same amount of VLDL.
The VLDL and VLDL-Ac-hE 18A-NH2 were treated with antibodies to apo B, apoCs, and apo E The apolipoproteins were thus precipitated and the resulting turbidity was measured at 405 nm. Turbidity was proportional to the amount of the apolipoprotein present on VLDL. […] Apo B, Apo Cs and Apo E The first bar: VLDL alone; the second bar: VLDL-Ac-hE 18A-NH2 (1:0.15 w/w); the third bar: VLDL-Ac-hE18A-NH2 (1:0.3 w/w); the fourth bar: VLDL-Ac-hE18A-NH2 (1:0.6 w/w).
VLDL was incubated with increasing concentrations of the peptide at the weight ratios indicated in the legend of FIG. 7 and the peptide-VLDL mixtures were subjected to density gradient ultracentrifugation to separate VLDL from free peptide. The apolipoprotein compositions of the reisolated VLDL-peptide complexes were examined by SDS-PAGE (FIG. 7). At equal VLDL particle concentration (determined by cholesterol concentration) the content of apo E relative to that of apo B was lower in peptide treated VLDL (lanes 2,4 and 5) than in VLDL alone (lane 1). It is evident that the decrease in apo E in VLDL is concomitant with the increase in peptide concentration. Negligible amounts of apo E were detectable in VLDL at the peptide:VLDL ratio of 0.6:1.0 (lane 5). […] The apo Cs have the same Rf as the peptide. The effect of the dual-domain peptide on the apo Cs was established by immunoprecipitation as described below.
The effect of this peptide on other VLDL proteins was also examined by immunoprecipitation of apo B, apo E and apo Cs. Antibodies specific to apo B, apo E and the apo Cs were used to precipitate the respective proteins from VLDL and the VLDL-Ac-hE18A-NH2 complex. The resulting turbidity was a quantitative measure of the amount of protein present in VLDL after treatment with the peptide. Levels of apo B and apo C were not changed by the binding of Ac-hE18A-NH2 while the levels of apo E were reduced (FIG. 8).

The test system of another data set is LDL. Put plainly: Binding of the peptides to LDL, agarose gel electrophoresis. Details: species or system human. On the procedure: Agarose gel electrophoresis was carried out according to the procedure of Asztalos (22). LDL and the LDL-peptide mixture were electrophoresed on a 0.7% agarose gel. Tris-tricine buffer (25 mM, pH 8.6) was used for both gel and electrode buffers. Since the peptides are positively charged, the wells were made in the center of the gel to allow for movement in both directions. 2 μl samples (containing about 5 μg of LDL) were diluted with 2 μl of Tris-tricine buffer containing 10% glycerol and bromophenol blue. Samples were eletrophoresed at a constant voltage of 250 volts for about 2 h or until the dye reached the top of the gel. After the run, the gel was stained with Coomassie blue. In order to determine the stoichiometry of binding, ^125I-labeled peptides were used and the stained bands were excised and counted to determine the ratio of peptide to LDL.
Peptides were incubated at room temperature with LDL at various ratios for 1 h and then analyzed by agarose gel electrophoresis (FIG. 2). […] At a peptide:LDL ratio of 2.5:10 (w/w), no free peptide was detected (FIG. 2, lane 3). However, at higher peptide concentrations (5:10 and 10:10 w/w), free peptide was detected (stained material moving toward the cathode, FIG. 2, lane 6). […] Using ^125I labeled Ac-hE18A-NH2, the stoichiometry was determined to be 30 molecules of peptide to one of LDL (assuming one molecule of ApoB per LDL particle). […]

Setting [1] is: immunoprecipitation, turbidity at 405 nm.

Entries after “also recorded” stand apart in the source; their conditions may differ.

For “Ac-18A-NH2: control peptide, end protected class A amphipathic helical peptide 18A (DWLKAFYDKVAEKLKGAF) [reference compound]”, the “Displacement of apo E from VLDL” value with VLDL was “also displaces apo E although not all the protein is displaced; also recorded: a significant amount of apo E was displaced; also recorded: cause a displacement of apo E from VLDL”. Besides, the “Effect on mobility of LDL / association with LDL on agarose gel” value in the data set with LDL (0.7% agarose gel, 1 h incubation at room temperature) is recorded as “did not change the mobility of LDL”.
Turning to “Ac-hE18A-NH2: end protected analog of hE18A (acetyl and amino groups) (LRKLRKRLLRDWLKAFYDKVAEKLKEAF)”, in the data set with VLDL, the “Displacement of apo E from VLDL” value is reported as “able to displace apo E from VLDL; also recorded: a significant amount of apo E was displaced; also recorded: decrease in the amount of apo E with increasing concentration of peptide; also recorded: cause a displacement of apo E from VLDL; also recorded: apo E is displaced from VLDL”. Besides, in the data set on VLDL (setting [1]), the “Levels of apo B and apo C on VLDL” value was “not changed”; the “Levels of apo E on VLDL” value was “reduced”. In addition, the “Stoichiometry of peptide binding to LDL” value with LDL (125I labeled peptide, assuming one ApoB per LDL particle) is 30 molecules of peptide to one of LDL.
